Test results as given in the supplement of paper PMC6411743.
± gives the standard deviation of the averaged measurements. This is one part of the list.

Chains of the proteins cited; added tags and fusions are not shown. Lines headed by an entry give the natural chain unless they say otherwise; changes in a name come on top.
UniProt Q7Z6M1: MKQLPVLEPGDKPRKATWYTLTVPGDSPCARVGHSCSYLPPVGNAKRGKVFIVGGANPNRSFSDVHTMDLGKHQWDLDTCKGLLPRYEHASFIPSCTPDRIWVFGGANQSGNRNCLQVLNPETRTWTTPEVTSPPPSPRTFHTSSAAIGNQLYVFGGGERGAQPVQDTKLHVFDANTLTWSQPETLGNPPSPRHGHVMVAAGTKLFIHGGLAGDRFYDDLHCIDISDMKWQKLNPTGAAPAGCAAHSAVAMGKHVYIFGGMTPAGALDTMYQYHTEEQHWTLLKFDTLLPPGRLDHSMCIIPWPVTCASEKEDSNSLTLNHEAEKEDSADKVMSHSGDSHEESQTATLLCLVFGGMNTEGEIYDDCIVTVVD
UniProt Q5U5X0: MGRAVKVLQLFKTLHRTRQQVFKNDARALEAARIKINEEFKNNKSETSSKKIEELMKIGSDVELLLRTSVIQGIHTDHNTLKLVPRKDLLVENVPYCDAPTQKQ
UniProt Q5VT52: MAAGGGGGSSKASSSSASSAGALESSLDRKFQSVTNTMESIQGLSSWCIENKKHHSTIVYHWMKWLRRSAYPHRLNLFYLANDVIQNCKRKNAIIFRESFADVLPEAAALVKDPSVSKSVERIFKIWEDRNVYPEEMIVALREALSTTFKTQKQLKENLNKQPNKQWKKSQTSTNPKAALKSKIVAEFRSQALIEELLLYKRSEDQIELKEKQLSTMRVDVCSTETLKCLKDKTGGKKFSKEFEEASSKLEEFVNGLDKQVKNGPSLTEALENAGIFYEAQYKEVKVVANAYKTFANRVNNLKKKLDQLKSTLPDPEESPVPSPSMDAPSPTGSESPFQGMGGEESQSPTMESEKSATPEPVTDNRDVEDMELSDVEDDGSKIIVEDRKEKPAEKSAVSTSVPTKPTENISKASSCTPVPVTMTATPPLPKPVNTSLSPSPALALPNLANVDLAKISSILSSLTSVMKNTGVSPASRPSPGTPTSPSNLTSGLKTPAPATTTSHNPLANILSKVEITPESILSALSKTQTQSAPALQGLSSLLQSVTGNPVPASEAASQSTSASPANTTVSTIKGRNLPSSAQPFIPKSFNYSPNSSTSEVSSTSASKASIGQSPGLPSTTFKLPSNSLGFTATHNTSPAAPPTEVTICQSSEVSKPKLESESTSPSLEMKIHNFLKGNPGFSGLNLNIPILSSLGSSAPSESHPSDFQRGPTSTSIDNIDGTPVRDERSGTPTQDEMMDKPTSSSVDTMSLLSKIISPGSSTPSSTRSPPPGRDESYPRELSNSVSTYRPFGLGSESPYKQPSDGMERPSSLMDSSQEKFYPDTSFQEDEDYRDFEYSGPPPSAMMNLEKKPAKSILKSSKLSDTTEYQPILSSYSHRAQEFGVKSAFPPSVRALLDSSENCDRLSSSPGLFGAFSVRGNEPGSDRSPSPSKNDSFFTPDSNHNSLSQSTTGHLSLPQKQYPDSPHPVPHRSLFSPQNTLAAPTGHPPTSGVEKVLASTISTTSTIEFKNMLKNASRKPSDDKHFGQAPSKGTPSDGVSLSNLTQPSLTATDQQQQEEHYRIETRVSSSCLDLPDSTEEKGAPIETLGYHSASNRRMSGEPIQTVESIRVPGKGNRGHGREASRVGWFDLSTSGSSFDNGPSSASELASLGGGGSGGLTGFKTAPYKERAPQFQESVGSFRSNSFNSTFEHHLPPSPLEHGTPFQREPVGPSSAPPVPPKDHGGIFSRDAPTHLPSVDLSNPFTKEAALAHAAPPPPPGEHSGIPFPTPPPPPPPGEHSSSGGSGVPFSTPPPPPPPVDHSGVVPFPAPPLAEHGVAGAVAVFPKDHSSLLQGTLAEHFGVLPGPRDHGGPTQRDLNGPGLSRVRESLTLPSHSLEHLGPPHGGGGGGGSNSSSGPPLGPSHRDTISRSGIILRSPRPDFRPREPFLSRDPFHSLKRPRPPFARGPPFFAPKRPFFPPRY
UniProt Q7Z3T8: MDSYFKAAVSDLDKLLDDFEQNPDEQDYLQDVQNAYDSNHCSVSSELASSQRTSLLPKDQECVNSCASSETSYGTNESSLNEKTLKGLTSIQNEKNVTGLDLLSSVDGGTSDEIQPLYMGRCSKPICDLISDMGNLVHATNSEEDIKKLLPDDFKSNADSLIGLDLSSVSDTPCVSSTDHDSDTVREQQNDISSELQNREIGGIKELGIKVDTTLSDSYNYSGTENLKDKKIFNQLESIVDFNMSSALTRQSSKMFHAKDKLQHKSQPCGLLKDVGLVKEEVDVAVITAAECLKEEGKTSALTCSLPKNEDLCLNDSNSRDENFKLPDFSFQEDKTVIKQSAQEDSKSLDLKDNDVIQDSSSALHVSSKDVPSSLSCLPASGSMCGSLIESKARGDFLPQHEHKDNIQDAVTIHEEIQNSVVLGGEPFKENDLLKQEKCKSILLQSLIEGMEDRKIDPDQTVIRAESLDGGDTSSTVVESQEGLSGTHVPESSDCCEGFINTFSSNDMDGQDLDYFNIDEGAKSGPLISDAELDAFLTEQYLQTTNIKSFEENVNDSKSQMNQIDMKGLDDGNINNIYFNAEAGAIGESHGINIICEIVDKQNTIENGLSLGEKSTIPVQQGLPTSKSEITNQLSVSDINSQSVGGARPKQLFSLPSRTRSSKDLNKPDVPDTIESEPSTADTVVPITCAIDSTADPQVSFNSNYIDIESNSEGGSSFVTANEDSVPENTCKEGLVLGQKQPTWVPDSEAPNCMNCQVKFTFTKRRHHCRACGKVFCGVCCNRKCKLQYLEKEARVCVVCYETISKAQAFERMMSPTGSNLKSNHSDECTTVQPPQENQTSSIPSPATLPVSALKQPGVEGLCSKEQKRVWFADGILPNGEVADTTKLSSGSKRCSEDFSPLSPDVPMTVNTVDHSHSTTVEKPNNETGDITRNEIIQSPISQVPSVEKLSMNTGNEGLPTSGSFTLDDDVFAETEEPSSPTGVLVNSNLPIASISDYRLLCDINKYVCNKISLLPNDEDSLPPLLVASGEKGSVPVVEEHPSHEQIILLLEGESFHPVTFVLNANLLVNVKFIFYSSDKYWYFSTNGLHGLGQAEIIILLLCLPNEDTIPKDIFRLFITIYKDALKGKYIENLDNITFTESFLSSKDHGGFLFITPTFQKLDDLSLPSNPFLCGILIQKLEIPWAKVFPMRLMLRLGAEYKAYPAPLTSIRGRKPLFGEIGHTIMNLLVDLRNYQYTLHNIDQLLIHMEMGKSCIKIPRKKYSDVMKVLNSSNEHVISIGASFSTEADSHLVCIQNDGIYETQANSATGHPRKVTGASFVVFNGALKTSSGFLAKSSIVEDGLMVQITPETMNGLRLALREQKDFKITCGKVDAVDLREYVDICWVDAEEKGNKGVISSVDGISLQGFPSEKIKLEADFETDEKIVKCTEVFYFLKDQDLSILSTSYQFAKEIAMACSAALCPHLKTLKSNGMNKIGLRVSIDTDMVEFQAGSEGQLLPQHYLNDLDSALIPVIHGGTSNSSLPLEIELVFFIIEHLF
UniProt Q66K74: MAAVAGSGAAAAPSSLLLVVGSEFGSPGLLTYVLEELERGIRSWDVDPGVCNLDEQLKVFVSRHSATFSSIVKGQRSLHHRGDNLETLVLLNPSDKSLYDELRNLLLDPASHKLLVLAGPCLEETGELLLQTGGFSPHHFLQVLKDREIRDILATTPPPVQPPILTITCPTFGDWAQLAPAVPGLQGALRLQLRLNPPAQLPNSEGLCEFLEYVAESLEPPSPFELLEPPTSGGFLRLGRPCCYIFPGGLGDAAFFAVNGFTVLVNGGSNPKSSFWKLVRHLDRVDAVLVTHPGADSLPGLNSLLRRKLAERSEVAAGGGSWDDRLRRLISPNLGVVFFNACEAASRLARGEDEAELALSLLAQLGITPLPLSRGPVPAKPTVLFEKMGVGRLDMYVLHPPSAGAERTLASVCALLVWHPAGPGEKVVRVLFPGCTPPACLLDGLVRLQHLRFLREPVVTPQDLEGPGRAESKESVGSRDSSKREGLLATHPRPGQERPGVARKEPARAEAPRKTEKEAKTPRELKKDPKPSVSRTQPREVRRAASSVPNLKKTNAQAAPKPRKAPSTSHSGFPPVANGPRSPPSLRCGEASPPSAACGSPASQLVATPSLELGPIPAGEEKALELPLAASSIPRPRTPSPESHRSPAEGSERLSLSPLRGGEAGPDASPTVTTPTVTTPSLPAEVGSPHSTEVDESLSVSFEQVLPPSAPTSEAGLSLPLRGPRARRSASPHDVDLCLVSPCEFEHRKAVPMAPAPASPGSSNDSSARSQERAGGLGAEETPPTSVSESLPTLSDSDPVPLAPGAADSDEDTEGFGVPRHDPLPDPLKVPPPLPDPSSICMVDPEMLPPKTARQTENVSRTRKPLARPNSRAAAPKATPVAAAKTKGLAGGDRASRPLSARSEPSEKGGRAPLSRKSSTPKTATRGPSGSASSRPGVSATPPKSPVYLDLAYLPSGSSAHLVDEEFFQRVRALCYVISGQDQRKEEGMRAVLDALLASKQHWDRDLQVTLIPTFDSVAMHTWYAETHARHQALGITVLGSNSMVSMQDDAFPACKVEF

Compound: Nc1nc2c(ncn2[C@@H]2O[C@H](COP(=O)(O)OP(=O)(O)OP(=O)(O)O)[C@@H](O)[C@H]2O)c(=O)[nH]1 [guanosine triphosphate]
Assay: NP40-soluble protein abundance relative to vehicle (solubility fold change) (ratio); higher = more soluble protein in presence of GTP
Experimental: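 Solubility proteome profiling in Jurkat crude lysate. Lysate was treated with Mg-GTP (0.1-10 mM) for 10 min at room temperature and 3 min at 37 °C, then solubilised with 0.8% NP40 and benzonase, followed by ultracentrifugation. Proteins were quantified by TMT10 LC-MS/MS; the value is the NP40-soluble abundance relative to the NP40-processed vehicle, from 3 independent experiments.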

Row | Target | NP40-soluble protein abundance (concentration: 0.1mM) | NP40-soluble protein abundance (concentration: 0.5mM) | NP40-soluble protein abundance (concentration: 1mM) | NP40-soluble protein abundance (concentration: 2mM) | NP40-soluble protein abundance (concentration: 4mM) | NP40-soluble protein abundance (concentration: 6mM) | NP40-soluble protein abundance (concentration: 8mM) | NP40-soluble protein abundance (concentration: 10mM)
1 | RABEPK (UniProt Q7Z6M1) | 1 ± 0.048 | 0.966 ± 0.036 | 1.01 ± 0.084 | 0.936 ± 0.063 | 0.968 ± 0.069 | 0.922 ± 0.1 | 0.936 ± 0.058 | 0.916 ± 0.079
2 | LYRM7 (UniProt Q5U5X0) | 0.867 ± 0.019 | 0.89 ± 0.056 | 1.004 ± 0.0052 | 1.03 ± 0.11 | 0.968 ± 0.079 | 0.989 ± 0.11 | 0.851 ± 0.084 | 0.986 ± 0.08
3 | UniProt Q5VT52 and related entries | 0.968 ± 0.078 | 1 ± 0.071 | 1.04 ± 0.069 | 1.03 ± 0.084 | 1.03 ± 0.092 | 1.03 ± 0.057 | 1.06 ± 0.07 | 1.07 ± 0.076
4 | ZFYVE16 (UniProt Q7Z3T8) | 0.967 ± 0.072 | 0.934 ± 0.035 | 0.955 ± 0.068 | 0.931 ± 0.081 | 0.907 ± 0.059 | 0.906 ± 0.052 | 0.928 ± 0.048 | 0.92 ± 0.04
5 | UniProt Q66K74 and related entries | 0.983 ± 0.02 | 0.975 ± 0.04 | 0.949 ± 0.027 | 0.935 ± 0.043 | 0.933 ± 0.035 | 0.933 ± 0.068 | 0.96 ± 0.026 | 0.959 ± 0.053
